From publication PMC9394524 come the findings set out here.

These are yes or no findings as the source states them, for the method shown. Binding seen in cells or lysates may run through a third protein. Some results given as binding are weak or reduced against the parent protein; the word gives no strength. Tags and fused reporters may be left off the sequences shown.

The assay addresses T1, Kel1-GFP (S. cerevisiae) (UniProt P38853).
T1 sequence: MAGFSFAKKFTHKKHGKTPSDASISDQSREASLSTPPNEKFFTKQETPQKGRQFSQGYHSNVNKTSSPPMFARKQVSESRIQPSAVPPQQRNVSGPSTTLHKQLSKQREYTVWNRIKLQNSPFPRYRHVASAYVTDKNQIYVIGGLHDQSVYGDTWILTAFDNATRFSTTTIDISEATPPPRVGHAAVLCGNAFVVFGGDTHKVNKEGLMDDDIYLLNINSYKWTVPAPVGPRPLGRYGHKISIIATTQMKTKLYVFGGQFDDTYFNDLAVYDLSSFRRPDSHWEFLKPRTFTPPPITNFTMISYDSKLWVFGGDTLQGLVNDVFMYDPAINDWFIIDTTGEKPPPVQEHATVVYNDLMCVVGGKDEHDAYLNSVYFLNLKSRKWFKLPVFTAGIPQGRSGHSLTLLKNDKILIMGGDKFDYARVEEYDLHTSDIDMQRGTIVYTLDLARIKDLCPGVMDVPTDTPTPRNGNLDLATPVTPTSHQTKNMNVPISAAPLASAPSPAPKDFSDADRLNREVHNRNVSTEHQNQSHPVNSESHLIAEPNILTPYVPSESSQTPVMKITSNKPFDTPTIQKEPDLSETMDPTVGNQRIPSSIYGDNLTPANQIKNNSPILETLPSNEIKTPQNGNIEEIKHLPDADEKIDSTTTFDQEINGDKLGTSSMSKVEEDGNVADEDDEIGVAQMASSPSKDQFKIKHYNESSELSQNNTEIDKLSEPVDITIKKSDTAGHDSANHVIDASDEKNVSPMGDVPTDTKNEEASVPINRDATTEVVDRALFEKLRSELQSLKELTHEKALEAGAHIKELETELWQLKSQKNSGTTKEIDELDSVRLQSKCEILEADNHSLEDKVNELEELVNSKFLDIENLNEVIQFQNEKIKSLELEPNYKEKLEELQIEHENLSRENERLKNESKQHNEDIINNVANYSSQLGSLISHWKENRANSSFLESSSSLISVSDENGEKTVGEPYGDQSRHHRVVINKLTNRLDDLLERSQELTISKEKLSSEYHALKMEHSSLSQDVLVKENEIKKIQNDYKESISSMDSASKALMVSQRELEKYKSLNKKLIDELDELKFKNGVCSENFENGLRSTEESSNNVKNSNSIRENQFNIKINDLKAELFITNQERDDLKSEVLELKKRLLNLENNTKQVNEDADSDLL
Briefly: co-IP; Kel1-GFP precipitated with GFP-Trap M-270 magnetic particles from 200 ug yeast lysate, 1 h at 4°C; cells treated with 10 uM alpha-factor for 1 h; lysis buffer 10 mM Tris pH 7.4, 150 mM NaCl, 0.5 mM EDTA, 0.5% Triton X-100, protease and phosphatase inhibitors; RGS detected by anti-FLAG Western blot. On the technique in general: Immunoblotting shows a protein as a band on a membrane.

B1: Sst2-3XFLAG (protein, UniProt P11972 1-698)
chain: MVDKNRTLHELSSKNFSRTPNGLIFTNDLKTVYSIFLICLDLKEKKHSSDTKSFLLTAFTKHFHFTFTYQEAIKAMGQLELKVDMNTTCINVSYNIKPSLARHLLTLFMSSKLLHTPQDRTRGEPKEKVLFQPTPKGVAVLQKYVRDIGLKTMPDILLSSFNSMKLFTFERSSVTDSIIHSDYLIHILFIKMMGAKPNVWSPTNADDPLPCLSSLLEYTNNDDTFTFEKSKPEQGWQAQIGNIDINDLERVSPLAHRFFTNPDSESHTQYYVSNAGIRLFENKTFGTSKKIVIKYTFTTKAIWQWIMDCTDIMHVKEAVSLAALFLKTGLIVPVLLQPSRTDKKKFQISRSSFFTLSKRGWDLVSWTGCKSNNIRAPNGSTIDLDFTLRGHMTVRDEKKTLDDSEGFSQDMLISSSNLNKLDYVLTDPGMRYLFRRHLEKELCVENLDVFIEIKRFLKKMTILKKLIDSKHCDKKSNTSTSKNNIVKTIDSALMKQANECLEMAYHIYSSYIMIGSPYQLNIHHNLRQNISDIMLHPHSPLSEHFPTNLYDPSPASAESAASSISSTEADTLGEPPEVSLKPSKNLSNENCSFKKQGFKHQLKEYKPAPLTLAETHSPNASVENSHTIVRYGMDNTQNDTKSVESFPATLKVLRKLYPLFEIVSNEMYRLMNNDSFQKFTQSDVYKDASALIEIQEKC
Consider B1, for which the binding result is on record as “binds”.

B2: sst2^S539D-3xFLAG (protein, UniProt P11972 1-698)
chain: MVDKNRTLHELSSKNFSRTPNGLIFTNDLKTVYSIFLICLDLKEKKHSSDTKSFLLTAFTKHFHFTFTYQEAIKAMGQLELKVDMNTTCINVSYNIKPSLARHLLTLFMSSKLLHTPQDRTRGEPKEKVLFQPTPKGVAVLQKYVRDIGLKTMPDILLSSFNSMKLFTFERSSVTDSIIHSDYLIHILFIKMMGAKPNVWSPTNADDPLPCLSSLLEYTNNDDTFTFEKSKPEQGWQAQIGNIDINDLERVSPLAHRFFTNPDSESHTQYYVSNAGIRLFENKTFGTSKKIVIKYTFTTKAIWQWIMDCTDIMHVKEAVSLAALFLKTGLIVPVLLQPSRTDKKKFQISRSSFFTLSKRGWDLVSWTGCKSNNIRAPNGSTIDLDFTLRGHMTVRDEKKTLDDSEGFSQDMLISSSNLNKLDYVLTDPGMRYLFRRHLEKELCVENLDVFIEIKRFLKKMTILKKLIDSKHCDKKSNTSTSKNNIVKTIDSALMKQANECLEMAYHIYSSYIMIGSPYQLNIHHNLRQNISDIMLHPHDPLSEHFPTNLYDPSPASAESAASSISSTEADTLGEPPEVSLKPSKNLSNENCSFKKQGFKHQLKEYKPAPLTLAETHSPNASVENSHTIVRYGMDNTQNDTKSVESFPATLKVLRKLYPLFEIVSNEMYRLMNNDSFQKFTQSDVYKDASALIEIQEKC
On to B2, for which the binding result is given as “binds”.

B3: sst2^S539A-3XFLAG (protein, UniProt P11972 1-698)
chain: MVDKNRTLHELSSKNFSRTPNGLIFTNDLKTVYSIFLICLDLKEKKHSSDTKSFLLTAFTKHFHFTFTYQEAIKAMGQLELKVDMNTTCINVSYNIKPSLARHLLTLFMSSKLLHTPQDRTRGEPKEKVLFQPTPKGVAVLQKYVRDIGLKTMPDILLSSFNSMKLFTFERSSVTDSIIHSDYLIHILFIKMMGAKPNVWSPTNADDPLPCLSSLLEYTNNDDTFTFEKSKPEQGWQAQIGNIDINDLERVSPLAHRFFTNPDSESHTQYYVSNAGIRLFENKTFGTSKKIVIKYTFTTKAIWQWIMDCTDIMHVKEAVSLAALFLKTGLIVPVLLQPSRTDKKKFQISRSSFFTLSKRGWDLVSWTGCKSNNIRAPNGSTIDLDFTLRGHMTVRDEKKTLDDSEGFSQDMLISSSNLNKLDYVLTDPGMRYLFRRHLEKELCVENLDVFIEIKRFLKKMTILKKLIDSKHCDKKSNTSTSKNNIVKTIDSALMKQANECLEMAYHIYSSYIMIGSPYQLNIHHNLRQNISDIMLHPHAPLSEHFPTNLYDPSPASAESAASSISSTEADTLGEPPEVSLKPSKNLSNENCSFKKQGFKHQLKEYKPAPLTLAETHSPNASVENSHTIVRYGMDNTQNDTKSVESFPATLKVLRKLYPLFEIVSNEMYRLMNNDSFQKFTQSDVYKDASALIEIQEKC
As for B3, the binding entry is on record as “binds”.
